Laboratory results taken from paper doi:10.1101/2024.04.02.587738.

Key:
Experiment in all cases: co-IP
[1] = target: T1, GFP-tagged wild-type COA8 (human) (UniProt Q96IL0)
T1 sequence: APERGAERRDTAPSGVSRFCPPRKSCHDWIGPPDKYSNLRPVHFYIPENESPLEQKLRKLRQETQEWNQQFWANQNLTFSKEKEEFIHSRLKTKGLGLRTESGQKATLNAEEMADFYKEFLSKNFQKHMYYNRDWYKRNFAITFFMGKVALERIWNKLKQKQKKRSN

[2] = target: T2, GFP-tagged COA8 W174A variant (human) (UniProt Q96IL0)
T2 sequence: T1 sequence with W135A

[3] = target: T1, GFP-tagged wild-type COA8 (human); remark: listed apart in the source

Measured: binding

COX10, heme O synthase (enzyme)
binds: all assays above

Changes are numbered by the printed parent chain. Read-outs that look alike come from different tables or passages of the source. These are yes or no findings as the source states them, for the method shown. Binding seen in cells or lysates may run through a third protein. Binding calls can cover weak binding; strength is not graded here. Sequences can lack the tags named with a protein.
